The values below come from PubChem BioAssay AID493014 (National Center for Advancing Translational Sciences (NCATS), 2011).

Some of the results follow. The main result of the screen is listed elsewhere. These columns were measured beside it and carry no call. The list favours compounds with an active or inconclusive main result. Words in brackets tell the shape of the fitted curve; partial curves, single points and poor fits give uncertain potencies.

This assay can be described thus: qHTS Assay to Find Inhibitors of Chronic Active B-Cell Receptor Signaling. As to conditions: ABC-DLBCL IkBa-CBG/CBR reporter, luminescence ratio (green luciferase fused to IkBa over red control in TMD8 lymphoma cells), 4 h. In short, it runs like this: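 TMD8 human ABC-DLBCL cells with doxycycline-inducible IκBα–green luciferase fusion and unfused red luciferase, in 0.5% FBS medium; compounds up to 46 uM, 4 h at 37C. Green/red luminescence ratio, filter-overlap corrected, fitted to concentration-response curves.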

Where [1] appears, read: measured here: CBR red luminescence, cell number.
The mark [2] stands for this setting: measured here: IkBa-CBG green luminescence.

With `C/C(=N/NC(=O)Cn1nc2ccccc2n1)c1ccc(F)cc1`, under setting [1], the AC50 was 4.11 µM [rising, full curve, poor fit].

For `Cc1cccc(CSc2nc3c(c(-c4cccs4)c2C#N)CN(C)CC3)c1`, the AC50 was 18.4 µM [falling, partial curve, poor fit] under setting [1] and 9.2 µM [rising, partial curve, poor fit] under setting [2]. Turning to `Cc1ccc(NC(=O)c2cccs2)cc1NC(=O)c1ccco1`, under setting [1], the AC50 is 20.6 µM [falling, partial curve]. Still for that read-out and setting: to `CC(C)c1nc(SCC(=O)N2c3ccccc3CC2C)c2ccccc2n1` (centres undefined) belongs 29.1 µM [falling, single point]. For the compound `COc1cccc(C(=O)Nc2nnc(SCC(=O)Nc3ccc(NC(C)=O)cc3)s2)c1`, the AC50 under setting [1] is 7.94 µM [falling, partial curve, poor fit]. Turning to `CCN(CC)CCC(=O)N1c2ccccc2Sc2ccc(Cl)cc21`, the AC50 under setting [1] is 25.9 µM [falling, single point].

`CCCN(CC(=O)Nc1ccccc1C)C(=O)C1CCN(C(=O)Nc2ccccc2)CC1`: the AC50 under setting [1] was 3.26 µM [rising, partial curve, poor fit]. On to `CC(OC(=O)CCc1nc2ccccc2c(=O)[nH]1)C(=O)c1ccc(C(C)(C)C)cc1` (centres undefined), for which the AC50 under setting [1] is 29.1 µM [falling, partial curve, poor fit]. Take `CCc1ccc(C(=O)/C=C/c2cnn(C)c2C)s1`: under setting [1], the AC50 is 13 µM [falling, partial curve]. Same read-out and setting: the figure for `Cc1cccc(C)c1NC(=O)c1cc2c(=O)c3ccccc3oc2nc1C(F)(F)F` is 3.98 µM [rising, single point]; for `Cc1nn(-c2ccccc2)c(Cl)c1C(=O)NCC(C)C` it is 3.26 µM [falling, partial curve, poor fit]; for `COc1cc(/C=N/NC(=O)c2ccc(O)cc2)ccc1OCC(=O)Nc1cccc([N+](=O)[O-])c1` it is 5.62 µM [falling, full curve].

Regarding `CC1=C(C(=O)OC(C)C)C(c2ccc(N(C)C)cc2)C2=C(CC(C)(C)CC2=O)N1` (centres undefined), the AC50 under setting [1] was 16.4 µM [rising, single point]. In the case of `C[C@@H]1CCC[C@H](C)N1NC(=O)c1ccc(Cl)c(S(N)(=O)=O)c1`, under setting [1], the AC50 is 5.8 µM [rising, full curve, poor fit]. Regarding `Cc1ccc(C(=O)NCC(=O)OC(C)C(=O)Nc2ccc(N(C)C)cc2)cc1C` (centres undefined), the AC50 under setting [1] was 3.98 µM [rising, full curve, poor fit]. Turning to `N#Cc1c(N)n(-c2ccccc2N)c2nc3ccccc3nc12`, the AC50 under setting [1] is 0.794 µM [rising, full curve]. For the compound `O=C(Nc1nc2cc3c(cc2s1)OCO3)c1cccc(N2C(=O)CCC2=O)c1`, the AC50 under setting [1] was 3.55 µM [falling, partial curve, poor fit]. Same read-out and setting: to `CCN(CC)S(=O)(=O)c1cccc(C(=O)OCC(=O)NC(C)c2ccccc2)c1` (centres undefined) belongs 10 µM [rising, partial curve, poor fit]; to `Clc1cccc2sc(N3CCN(c4ccccc4)CC3)nc12`, 2.91 µM [rising, full curve]. As to `O=C(c1ccc(CNc2c(N3CCCC3)c(=O)c2=O)cc1)N1CC=C(c2ccccc2)CC1`, under setting [1], the AC50 was 35.5 µM [falling, single point].

As to `CC(C)CC(NC(=O)C1CCC(C)CC1)C(=O)Nc1ccc2c(c1)OCCO2` (centres undefined), the AC50 under setting [1] was 6.31 µM [rising, full curve, poor fit]. Consider `Cc1ccc(S(=O)(=O)Nc2ccc3c(c2)c2c(n3S(=O)(=O)c3ccc(C)cc3)CCCC2=O)cc1`, for which the AC50 under setting [1] is 32.6 µM [rising, single point]. The same measure, in the same setting: to `COc1ccc(C(C)=O)cc1COc1ccc(Cl)c(C)c1` belongs 15.8 µM [rising, partial curve, poor fit]. Consider `Cc1cccc(C)c1N1CCN(C(=O)N2CCOCC2)CC1`, for which the AC50 under setting [1] was 5.01 µM [rising, full curve]. In the case of `CCCCn1c(N)c(N(CCC(C)C)C(=O)C2CC(=O)N(c3cccc(SC)c3)C2)c(=O)[nH]c1=O` (centres undefined), the AC50 under setting [1] was 2.91 µM [rising, full curve, poor fit].

`COc1cccc(OC)c1OCc1cc(C2C3CCCC=C3C(C#N)=C(N)C2(C#N)C#N)c(C)cc1C` (centres undefined): the AC50 under setting [1] is 5.01 µM [falling, full curve, poor fit]. As for `NC(=O)C1(N2CCCCC2)CCN(C(=O)c2ccccc2)CC1`, under setting [1], the AC50 was 18.4 µM [falling, single point]. Regarding `COCC(C)NC(=O)c1ccc(CN2CCc3ccccc3C2)cc1` (centres undefined), under setting [1], the AC50 was 6.31 µM [rising, partial curve, poor fit]. `COc1ccc(CCC(=O)Nc2nc(C)c(C(=O)N(C)C)s2)cc1`: the AC50 under setting [1] is 0.794 µM [rising, full curve, poor fit]. Same read-out and setting: the figure for `O=C(c1cc(Br)c(Br)s1)N1CCc2ccccc2C1` is 0.291 µM [rising, full curve, poor fit].

Turning to `CS(=O)(=O)c1ccc2nnn(OCC(=O)Nc3cccc(C#N)c3)c2c1`, the AC50 under setting [1] is 12.6 µM [falling, single point]. In the case of `Cn1c(SCC(=O)N/N=C/c2ccc(O)c(O)c2)nc2ccccc21`, the AC50 under setting [1] was 10 µM [falling, partial curve, poor fit]. Consider `O=C(Nc1ccc(S(=O)(=O)N2CCC(C(=O)NC3CCCCC3)CC2)cc1)c1ccco1`, for which the AC50 under setting [1] is 8.2 µM [rising, partial curve, poor fit].

As for `CSc1ccc(CN2CCc3c([nH]c4ccccc34)C2)cc1`, the half-maximal activity concentration (AC50) under setting [1] is 4.47 µM [falling, partial curve]. For `CNC(=O)CN1C(=O)c2cccc3cccc1c23`, the AC50 is 23.1 µM [falling, partial curve, poor fit] under setting [1] and 25.9 µM [rising, partial curve, poor fit] under setting [2]. With `COc1ccc(-c2cc(C(=O)NCC(c3ccco3)N(C)C)c3ccccc3n2)cc1OC` (centres undefined), the AC50 under setting [1] was 6.51 µM [rising, single point]. With `COc1ccc(NC(=S)/N=C(\N)Nc2nc(C)c3ccccc3n2)cc1`, under setting [1], the AC50 is 10 µM [falling, partial curve, poor fit]. For the compound `O=C(OCc1nc2ccccc2s1)C1CCN(C2=NS(=O)(=O)c3ccccc32)CC1`, the AC50 under setting [1] was 12.6 µM [rising, partial curve]. Take `CC[C@]12c3[nH]c4cc(CCC(=O)N(C)C)ccc4c3CCN1C(=O)[C@@H](CC(=O)NCCc1ccccn1)C[C@@H]2C(=O)N1CCN(C(=O)C2CC2)CC1`: the AC50 runs as follows: under setting [1], 6.51 µM [rising, single point]; under setting [2], 13 µM [falling, partial curve, poor fit]. On to `COc1ccc(-c2cc(C(F)(F)F)nc(NC3CCCC3)n2)cc1OC`, for which the AC50 under setting [1] was 7.94 µM [rising, partial curve]. In the case of `O=C(NNS(=O)(=O)c1ccccc1)c1cc2cc3ccccc3nc2s1`, the AC50 under setting [1] was 4.47 µM [falling, full curve, poor fit].

With `O=C(Cn1cc(C(F)(F)F)ccc1=O)OCC(=O)c1ccc[nH]1`, the concentration at half-maximal activity (AC50) under setting [1] was 23.1 µM [rising, single point]. In the case of `COc1ccc(CNS(=O)(=O)c2cc(-c3cc(C)no3)ccc2C(C)C)cc1`, the AC50 under setting [2] was 35.5 µM [falling, single point]. Same read-out and setting: to `Cc1ccc(OCC(=O)c2cc(C)n(CC(F)(F)F)c2C)c([N+](=O)[O-])n1` belongs 25.1 µM [falling, single point]. Take `CC1=Nc2ccccc2/C1=C\c1nc(-c2ccccc2)oc1O`: the AC50 under setting [1] was 1.3 µM [rising, full curve, poor fit]. Take `CC1(C)Cc2c(c(N3CCOCC3)nc3sc(C(=O)N4CCCCC4)c(N)c23)CO1`: the AC50 under setting [1] was 0.058 µM [rising, full curve, poor fit].

On to `CC1CCCN(S(=O)(=O)Cc2ccc(Cl)cc2)C1` (centres undefined), for which, under setting [1], the AC50 is 13 µM [rising, partial curve, poor fit]. In the case of `CC(/C=C/c1ccc2c(c1)OCO2)=N\NC(=O)c1ccccc1`, the AC50 under setting [1] is 20 µM [falling, partial curve]. Regarding `COc1cccc(NC(=O)CSCC(=O)Nc2ccccc2)c1`, the AC50 under setting [1] was 16.4 µM [falling, single point]. Consider `O=C(NCC(=O)N1CCN(C(c2ccccc2)c2ccccc2)CC1)c1ccc(Br)o1`, for which the AC50 under setting [1] was 5.62 µM [rising, single point]. For `O=C(N/N=C/C(Br)=C/c1ccccc1)c1ccncc1`, the AC50 under setting [1] is 11.2 µM [falling, partial curve, poor fit].

As for `CCCCOc1ccccc1C(=O)NCCCC(=O)O`, the AC50 under setting [1] is 6.51 µM [rising, single point].

Take `COC(=O)CCS(=O)(=O)c1ccc(Cl)cc1`: the AC50 under setting [1] was 6.51 µM [falling, single point].

Consider `CC1=NN(c2ccccc2)C(=O)/C1=C/C=C/c1ccc(N(C)C)cc1`, for which, under setting [1], the AC50 was 1.41 µM [rising, full curve]. As to `CCOC(=O)c1c(NC(=O)C2CC=CCC2C(=O)O)sc(C)c1CC` (centres undefined), the AC50 under setting [1] is 7.08 µM [falling, partial curve]. Turning to `CC1CCc2cccc3c2N1c1cc(C#N)c(C#N)cc1O3` (centres undefined), under setting [1], the AC50 is 14.1 µM [rising, partial curve, poor fit]. Turning to `Cc1ccc(C(=O)c2ccccc2C(=O)OCC(=O)Nc2cccc([N+](=O)[O-])c2)cc1`, the AC50 under setting [1] is 20.6 µM [falling, partial curve, poor fit].

As for `NC(=O)c1ccsc1NC(=O)CSc1nc2ccccc2c(=O)n1CCCO`, the AC50 under setting [1] is 16.4 µM [falling, single point]. On to `O=C(O)c1ccc(CSc2nnc(-c3ccccc3Br)o2)cc1`, for which the AC50 under setting [1] was 7.08 µM [falling, full curve, poor fit].

On to `O=C1CC(SCCO)C(=O)N1c1ccc(Oc2ccccc2)cc1` (centres undefined), for which the AC50 under setting [1] was 0.291 µM [rising, full curve, poor fit]. Turning to `CCCN(CC1COc2ccccc2O1)C(=S)Nc1ccc(C)cc1` (centres undefined), the AC50 under setting [1] is 20.6 µM [falling, single point].
